These results are taken from PubChem BioAssay AID2685 (National Center for Advancing Translational Sciences (NCATS), 2010).

The nature of the experiment: qHTS Assay for Lipid Storage Modulators in Drosophila S3 Cells.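 As to cell number change: cells counted by Cell Tracker Red CMTPX staining in the red channel.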 Conditions: BODIPY lipid droplet fluorescence, 18-24 h; for cell number change: measured here: cell count max response, cells fed with added oleic acid. The method in brief:
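Drosophila S3 cells got compounds at several concentrations plus oleic acid (400 uM solution). Laser-scanning cytometry with 488 nm excitation read lipid droplets at 500-530 nm and cells at 575-640 nm. Percent activity was relative to 20 uM Triacsin C.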

Setting [1] is: measured here: lipid fluorescence (Fed channel) AC50, cells fed with added oleic acid.
[2] abbreviates: measured here: cell number channel AC50, cells fed with added oleic acid.

Structures are written as SMILES. Some of the results follow. Further columns of the screen follow, without active or inactive calls. Compounds called inactive in the main read-out are mostly missing here. Words in brackets tell the shape of the fitted curve; partial curves, single points and poor fits give uncertain potencies.

As usually defined, the AC50 is the midpoint of the concentration-response curve, whichever way the signal moves. A low value points to greater potency. As for `Cc1ccc(-c2nc3cccnc3s2)cc1NS(=O)(=O)c1ccc2c(c1)CCCC2`, under setting [1], the AC50 is 3.66 µM [rising, partial curve].

In the case of `CC(C)=NOc1nc(N(C)C)nc(N2CCOCC2)n1`, the cell number change was -14.6%.

Regarding `COc1ccc(NC(=O)COc2cccc3c2CCNC3=O)cc1`, the AC50 under setting [1] is 2.59 µM [falling, single point].

As for `Cc1ccc(S(=O)(=O)N(C)C)cc1-n1c(SCC(=O)Nc2ccc(F)cc2Cl)nc2ccccc2c1=O`, the cell number change is -50%. Further, the AC50 under setting [2] is 2.06 µM [rising, partial curve]. For the same compound, the AC50 under setting [1] is 0.366 µM [falling, partial curve, poor fit].

For the compound `O=C(Cn1c(C(F)(F)F)nc2ccccc21)N1CCCC1`, the cell number change was -19.2%. For the same compound, the AC50 under setting [2] was 0.0058 µM [falling, full curve, poor fit]. Besides, the AC50 under setting [1] is 6.51 µM [falling, single point].

For the compound `CC(C)(C)C(=O)Nc1cccc2[nH]ncc12`, the cell number change was determined as 14.7%. Also, under setting [2], the AC50 is 0.0058 µM [rising, full curve, poor fit]. The AC50 under setting [1] is 0.00517 µM [rising, full curve, poor fit].

For the compound `COC(=O)c1ccccc1NS(C)(=O)=O`, the cell number change is -33.8%. Moreover, the AC50 under setting [2] was 5.8 µM [falling, full curve, poor fit]. Besides, under setting [1], the AC50 is 0.0206 µM [falling, full curve, poor fit].

For `O=S(=O)(Nc1ccc2cn[nH]c2c1)c1ccccc1`, the cell number change was 32.4%. In addition, under setting [2], the AC50 was 0.164 µM [rising, full curve, poor fit]. For the same compound, the AC50 under setting [1] is 5.8 µM [rising, partial curve, poor fit].

As to `Cc1csc(SCC(=O)c2ccc(S(=O)(=O)N3CCOCC3)cc2)n1`, the cell number change is -3.7%. Moreover, the concentration at half-maximal activity (AC50) under setting [1] was 0.13 µM [rising, full curve, poor fit].

Regarding `CCOC(=O)CNC(=S)SC`, the cell number change was 5.57%. Moreover, under setting [2], the AC50 was 6.51 µM [falling, single point].

As to `O=C(CN1CCN(c2ccc(F)cc2)CC1)Nc1ccccc1`, the cell number change was determined as 5.67%.

For `CC1(C)Cc2c(sc(NC(=O)c3ccc4c(c3)OCCO4)c2C(N)=O)C(C)(C)N1`, the cell number change is -9.54%.

As to `N#C/C(=C\c1ccccc1[N+](=O)[O-])C(=O)NCc1ccccc1`, the cell number change is -6.11%. The AC50 under setting [1] is 29.1 µM [falling, single point].

For `COc1ccc2nc(-c3ccccc3)cc(C(=O)OCC(=O)NC3CC3)c2c1`, the cell number change was -102%. Further, under setting [2], the AC50 was 32.6 µM [falling, partial curve, poor fit].

Regarding `COc1ccc(NC(=O)C2CCCN2S(=O)(=O)c2ccc3c(c2)CCC(=O)N3)c(OC)c1` (stereo not drawn), the cell number change stood at 19.8%. Further, the AC50 under setting [2] was 0.058 µM [rising, full curve, poor fit]. Further, the AC50 under setting [1] was 16.4 µM [rising, single point].

As for `CCOc1cccc(-c2csc(C3COc4ccccc4O3)n2)c1` (stereo not drawn), the cell number change was -4.15%. The AC50 under setting [1] is 20.6 µM [rising, single point].

On to `NC(=O)/C(=N\O)c1ccccc1`, for which the cell number change came out at 14.1%. For the same compound, under setting [1], the AC50 was 29.1 µM [rising, single point].

Turning to `CC1(C)NC(=O)N(CC(=O)N2CCN(c3cccc(Cl)c3)CC2)C1=O`, the cell number change was determined as 1.29%. Besides, under setting [1], the AC50 was 5.17 µM [rising, partial curve, poor fit].

For `Cc1ccn2c(CNCCCn3cccn3)c(C(=O)N3CCCCCC3)nc2c1`, the cell number change amounted to 12.2%. Moreover, the AC50 under setting [1] was 29.1 µM [rising, single point].

Turning to `Cc1ccc2oc(=O)n(CC(=O)OCCC(C)C)c2c1`, the cell number change is -19.1%. Also, the AC50 under setting [1] was 0.651 µM [falling, full curve, poor fit].

Consider `CCc1nc(N2CCC(C)CC2)c2oc3ccccc3c2n1`, for which the cell number change was -34.6%. The AC50 under setting [2] is 29.1 µM [falling, single point]. The AC50 under setting [1] was 0.103 µM [rising, full curve, poor fit].

For the compound `COc1cc(CNCc2ccccc2C(F)(F)F)cc(OC)c1`, the cell number change came out at 36%. Moreover, under setting [2], the AC50 was 0.0651 µM [rising, full curve, poor fit]. The AC50 under setting [1] is 0.206 µM [rising, full curve, poor fit].

As for `CCN1C(=O)CS/C1=N\S(=O)(=O)c1ccc(C)cc1`, the cell number change amounted to 22.8%. Also, the concentration at half-maximal activity (AC50) under setting [1] was 20.6 µM [rising, single point].

In the case of `N#Cc1c(N)c(C(=O)c2ccc(Cl)cc2)n2c1CCC2`, the cell number change is -22.2%.

As to `S=c1[nH]nc(COc2ccc(Cl)cc2)n1-c1ccccc1`, the cell number change was 12.4%. Moreover, the AC50 under setting [2] was 0.00411 µM [rising, full curve, poor fit].

With `COc1cc(CCC(=O)OCC(=O)Nc2ccc(F)cc2F)cc(OC)c1OC`, the cell number change is -2.78%.

Take `COc1ccccc1N1CCN(C2CCN(S(=O)(=O)c3ccc4ccccc4c3)CC2)CC1`: the cell number change was -31%. The AC50 under setting [2] is 6.51 µM [falling, partial curve, poor fit].

On to `CC(C)C(=O)Nc1ccc(C(=O)NNC(=O)NC2CCCCC2)cc1`, for which the cell number change was -20.7%. The concentration at half-maximal activity (AC50) under setting [1] was 2.59 µM [falling, full curve].

Regarding `CC(Oc1ccc2c3c(c(=O)oc2c1)CCCC3)C(=O)NCCCn1ccnc1` (stereo not drawn), the cell number change worked out at 0.298%. Further, under setting [1], the AC50 was 20.6 µM [rising, single point].

For `CCOC(=O)c1cc(-c2ccccc2)sc1NC(=O)COC(=O)c1cccc(S(N)(=O)=O)c1`, the cell number change is -15.9%. Further, the AC50 under setting [2] is 2.06 µM [falling, single point]. Moreover, under setting [1], the AC50 was 20.6 µM [falling, single point].

For the compound `CCOc1ccc(/C=N/NS(=O)(=O)c2ccc(C)cc2)cc1OC`, the cell number change was -8.77%.

Consider `COc1ccc(S(=O)(=O)N2CCOCC2)cc1C(=O)N(C)Cc1ccccc1F`, for which the cell number change is -34.1%. Also, the concentration at half-maximal activity (AC50) under setting [2] is 0.0058 µM [falling, full curve, poor fit]. Further, the AC50 under setting [1] is 16.4 µM [falling, single point].

As for `COC(=O)C1=CN(CCOC23CC4CC(CC(C4)C2)C3)C=C(C(=O)OC)C1c1ccsc1`, the cell number change is -12.6%. Further, the AC50 under setting [2] is 0.58 µM [falling, partial curve, poor fit].

Turning to `COc1cc([N+](=O)[O-])ccc1NC(=O)CSc1n[nH]c(C(C)C)n1`, the cell number change was -18.3%.

As for `Cc1ccc(NC(=S)N(CCN(C)C)C(C)c2ccco2)cc1Cl` (stereo not drawn), the half-maximal activity concentration (AC50) under setting [1] is 6.51 µM [rising, single point].

In the case of `CC(=O)Nc1ccc(NC(=O)CSc2nnc(-c3ccco3)o2)cc1`, the cell number change was -3.49%. In addition, the AC50 under setting [2] is 0.13 µM [falling, full curve, poor fit].

As for `CC(C)c1ccc(OCC(=O)N(Cc2ccccc2)c2ccccn2)cc1`, the cell number change stood at 7.65%.

With `COc1ccc(CCNC(=O)C(Sc2ccccn2)c2ccccc2)cc1OC` (stereo not drawn), the cell number change is -14.1%. Further, under setting [1], the AC50 is 7.31 µM [falling, partial curve].

Consider `CC(=O)N1c2ccccc2N(Cc2ccc(C)cc2C)C(=O)C1(C)C`, for which the cell number change was 5.71%. Also, the half-maximal activity concentration (AC50) under setting [1] was 0.146 µM [rising, full curve, poor fit].

For `CCN(CC)c1ccc(NC(=O)C2CC3CCC2C3)cc1` (stereo not drawn), the cell number change is -8.47%.

`CC(C)P(=O)(Cc1cccc(C#N)c1)C(C)C`: the cell number change was -47.7%. Under setting [2], the AC50 was 5.8 µM [falling, full curve]. The AC50 under setting [1] was 5.8 µM [falling, full curve].

Regarding `COc1cccc(NC(=O)NC2CCN(Cc3nnnn3Cc3ccc4c(c3)OCO4)CC2)c1`, the cell number change stood at 20%. The AC50 under setting [1] was 9.2 µM [rising, partial curve].

With `Cc1cccc(NC(=O)Cn2c(=O)oc3cc(S(=O)(=O)N4CCCC4)ccc32)n1`, the cell number change worked out at 13.8%.

In the case of `CCCCC(C(=O)NC1CCCC1)N(C(=O)c1snc(C(N)=O)c1N)c1ccc(C)cc1` (stereo not drawn), the cell number change stood at 21.3%.

Turning to `Cc1noc(C)c1S(=O)(=O)N1CCN(c2ccccc2)CC1`, the cell number change is -41.1%. Further, under setting [2], the half-maximal activity concentration (AC50) was 32.6 µM [falling, single point].

`COC(=O)c1sccc1N(C)S(C)(=O)=O`: the cell number change is -3.69%. Besides, the AC50 under setting [2] is 0.58 µM [falling, full curve]. Under setting [1], the concentration at half-maximal activity (AC50) is 0.58 µM [falling, full curve].

For `Cc1nn(C)cc1NC(=O)CCSc1nc(-c2ccco2)cc(C(F)(F)F)n1`, the cell number change amounted to 149%. The concentration at half-maximal activity (AC50) under setting [2] was 0.517 µM [rising, single point]. Besides, the AC50 under setting [1] was 0.58 µM [rising, single point].

With `O=C(Nc1ccccc1)N(CCCN1CCOCC1)Cc1ccccc1F`, the cell number change is -0.885%.

As to `Cc1cc(C)n(-c2ccc(C(=O)OCC(=O)Nc3cc(S(C)(=O)=O)ccc3Cl)cc2)n1`, the cell number change was -4.65%.

On to `CCOc1ccc(NC(C)=O)cc1N`, for which the cell number change turned out to be 26.6%. Also, the AC50 under setting [1] was 2.06 µM [rising, partial curve].

For `CCN(CC)S(=O)(=O)c1cc(NC(=O)CN2C(=O)NC3(CCCc4ccccc43)C2=O)ccc1C` (stereo not drawn), the cell number change stood at 28.7%. In addition, under setting [1], the AC50 was 5.17 µM [rising, partial curve].

In the case of `Cc1ccc(NCc2ccccc2O)cc1C`, the cell number change is -29.3%. Moreover, the AC50 under setting [1] was 32.6 µM [falling, single point].

For `O=C(O)c1cccc2c1C(=O)c1ccc(N3CCCCC3)cc1S2(=O)=O`, the cell number change is 10.8%. In addition, under setting [1], the AC50 was 29.1 µM [rising, partial curve, poor fit].

On to `COc1cccc(N(C(=O)Cn2nnc3ccccc32)C(C(=O)NCc2ccco2)c2cccnc2)c1` (stereo not drawn), for which the cell number change turned out to be 37%. Further, the AC50 under setting [2] is 1.16 µM [rising, partial curve]. In addition, the AC50 under setting [1] was 4.11 µM [rising, full curve].

As for `CCOC(=O)N1CCC(=NNC(=O)c2cc3ccccc3cc2O)CC1`, the cell number change is -66.7%. Under setting [2], the AC50 is 0.116 µM [falling, full curve].

As for `CC1CCCC(C)N1C(=O)COC(=O)c1cc([N+](=O)[O-])ccc1N1CCOCC1` (stereo not drawn), the cell number change was 48.4%. The half-maximal activity concentration (AC50) under setting [2] is 29.1 µM [rising, single point].

With `Cn1c(CNC(=O)c2ccc(Cl)cc2)nnc1SCC(=O)N1CCOCC1`, the cell number change is 15.3%.

As to `O=C1CCCN2N=C(SCC(=O)Nc3cccc(C(F)(F)F)c3)SC2=N1`, the cell number change was -32.4%. For the same compound, under setting [2], the half-maximal activity concentration (AC50) is 3.26 µM [falling, full curve].

Regarding `Cn1cnc([N+](=O)[O-])c1Oc1ccc2ccccc2c1`, the cell number change is -8.68%. In addition, the AC50 under setting [1] was 6.51 µM [falling, full curve, poor fit].

Consider `COc1ccc(C2=NN(C(=O)CCCC(=O)O)C(c3cn(-c4ccccc4)nc3-c3ccccc3)C2)cc1` (stereo not drawn), for which the cell number change is -3.14%. In addition, the half-maximal activity concentration (AC50) under setting [2] is 2.59 µM [rising, single point]. Moreover, under setting [1], the AC50 was 6.51 µM [rising, single point].
